From patent US6248765A, “Imidazole derivatives as histamine receptor H3 (ANT) agonists” (priority 1995, dated 2001)
Counter-ions that a name gives are not always drawn. Some results were stated once for a whole list of compounds, not compound by compound. For at least one compound, name, drawing or mass did not settle the structure.

By UniProt entry, the sequences of proteins in these tests, tags left out. Where a name states a change or a piece, a line headed by the entry shows the natural chain unless it says otherwise.
UniProt Q9QYN8: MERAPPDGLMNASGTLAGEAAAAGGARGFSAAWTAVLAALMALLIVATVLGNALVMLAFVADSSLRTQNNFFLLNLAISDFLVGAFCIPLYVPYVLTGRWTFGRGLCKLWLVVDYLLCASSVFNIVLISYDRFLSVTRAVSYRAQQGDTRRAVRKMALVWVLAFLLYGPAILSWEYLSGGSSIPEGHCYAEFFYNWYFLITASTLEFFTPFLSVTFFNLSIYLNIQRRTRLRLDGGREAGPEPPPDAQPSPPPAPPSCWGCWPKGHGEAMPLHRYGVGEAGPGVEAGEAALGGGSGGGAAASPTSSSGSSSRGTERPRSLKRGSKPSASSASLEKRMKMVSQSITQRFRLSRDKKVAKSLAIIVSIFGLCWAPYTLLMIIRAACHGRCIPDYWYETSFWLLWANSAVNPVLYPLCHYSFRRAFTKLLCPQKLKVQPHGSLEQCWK

Assays:
histamine H3 receptor [1] = target: T1, histamine H3 receptor (Rattus norvegicus, UniProt Q9QYN8); assay: H3 agonist effect: inhibition of [3H]histamine release from synaptosomes of rat cerebral cortex; format: biochemical; details: in words
T1 construct: synthesized from [^3 H]histidine by synaptosomes of rat cerebral cortex; from tissue; host or cells: rat cerebral cortex synaptosomes
Method: The partial agonist effect of the compounds is evaluated by comparison of the maximum inhibition which they induce relative to the maximum inhibition induced by exogenous histamine or [R]-α-methylhistamine; the ratio of these two values giving the intrinsic activity of the compound with respect to the system.

histamine H3 receptor [2] = target: T1, histamine H3 receptor; assay: H3 antagonist power: reversal of (R)-alpha-methylhistamine-induced inhibition of [3H]histamine release from synaptosomes of rat cerebral cortex; format: biochemical; details: in words

| SMILES | functional class at the histamine H3 receptors (agonists) (histamine H3 receptor [1]) | functional class at the histamine H3 receptors (antagonists) (histamine H3 receptor [2]) |
| --- | --- | --- |
| CC(C)(C)NC(=O)OCCCc1c[nH]cn1 [Example 1, N-t-Butyl-3-(1H-imidazol-4-yl)propyl carbamate] | agonists or partial agonists | – |
| O=C(NC(c1ccccc1)c1ccccc1)OCCCc1c[nH]cn1 [Example 2, 3-(1H-Imidazol-4-yl)propyl-N-(diphenylmethyl) carbamate] | agonists or partial agonists | – |
| O=C(NCC(c1ccccc1)c1ccccc1)OCCCc1c[nH]cn1 [Example 3, 3-(1H-Imidazol-4-yl)propyl-N-(2,2-diphenylethyl) carbamate] | agonists or partial agonists | – |
| O=C(NCC(c1ccccc1)c1ccccc1)OCCc1c[nH]cn1 [Example 4, 2-(1H-Imidazol-4-yl)ethyl-N-(2,2-diphenylethyl) carbamate] | agonists or partial agonists | – |
| CC(C)CCOCCCc1c[nH]cn1 [Example 5, 3-(1H-Imidazol-4-yl)propyl 3-methylbutyl ether] | agonists or partial agonists | – |
| FC(F)(F)c1cccc(OCCCc2c[nH]cn2)c1 [Example 8, 4-[3-(3-Trifluoramethylphenoxy)propyl]-1H-imidazole] | agonists or partial agonists | – |
| O=[N+]([O-])c1cccc(OCCCc2c[nH]cn2)c1 [Example 9, 4-[3-(3-Nitrophenoxy)propyl]-1H-imidazole] | agonists or partial agonists | – |
| FC(F)(F)c1cccc(SCCc2c[nH]cn2)c1 [Example 10, 4-[2-(3-Trifluoromethylphenoxy)thioethyl]-1H-imidazole] | agonists or partial agonists | – |
| FC(F)(F)Oc1cccc(OCCCc2c[nH]cn2)c1 [Example 11, 4-[3-(3-Trifluoromethoxyphenoxy)propyl]-1H-imidazole] | agonists or partial agonists | – |
| CC(C)c1cccc(OCCCc2c[nH]cn2)c1 [Example 12, 4-[3-(3-Isopropylphenoxy)propyl]-1H-imdazole] | agonists or partial agonists | – |
| CC(C)(C)c1cccc(OCCCc2c[nH]cn2)c1 [Example 13, 4-[3-(3-tert-Butylphenoxy)propyl]-1H-imidazole] | agonists or partial agonists | – |
| CCc1cccc(OCCCc2c[nH]cn2)c1 [Example 15, 4-[3-(3-Ethylphenoxy)propyl]-1H-imidazole] | agonists or partial agonists | – |
| FC(F)(F)c1cccc(OCCCCc2c[nH]cn2)c1 [Example 16, 4-[3-(3-Trifluoromethylphenoxy)butyl]-1H-imidazole] | agonists or partial agonists | – |
| CC(=O)c1cccc(OCCCCc2c[nH]cn2)c1 [Example 17, 4-[4-(3-Ethanoylphenoxy)butyl]-1H-imidazole] | agonists or partial agonists | – |
| CCC(=O)c1cccc(OCCCc2c[nH]cn2)c1 [Example 18, 4-[3-(3-Propanoylphenoxy)propyl]-1H-imidazole] | agonists or partial agonists | – |
| CCCc1cccc(OCCCc2c[nH]cn2)c1 [Example 20, 4-[3-(3-Propylphenoxy)propyl]-1H-imidazole] | agonists or partial agonists | – |

| SMILES | functional class at the histamine H3 receptors (agonists) (histamine H3 receptor [1]) | functional class at the histamine H3 receptors (antagonists) (histamine H3 receptor [2]) |
| --- | --- | --- |
| O=S(=O)(c1ccc(F)cc1)c1ccc(OCCCc2c[nH]cn2)cc1 [Example 150, 4-Fluorophenyl 4-(3-(1H-imidazol-4-yl)propyloxy)phenyl sulphone] | – | antagonists |
| O=C(/C=C/c1ccccc1)c1ccc(OCCCc2c[nH]cn2)cc1 [Example 151, 4-(3-(1-Imidazol-4-yl)propyloxy)phenyl-3-phenyl-2-propenone] | – | antagonists |
| CCCCCCC(=O)c1ccc(OCCCc2c[nH]cn2)cc1 [Example 152] | – | antagonists |
| CSc1ccc(OCCCc2c[nH]cn2)cc1 [Example 166, 4-[3-(4-Thiomethylphenoxy)propyl]-1H-imidazole oxalate] | – | antagonists |
| c1ccc(CSc2ccc(OCCCc3c[nH]cn3)cc2)cc1 [Example 167, 4-[3-(4-Thiobenzylphenoxy)propyl]-1H-imidazole hydrochloride] | – | antagonists |
| CC#Cc1ccc(OCCCc2c[nH]cn2)cc1 [Example 172, 3-(1H-Imidazol-4-yl)propyl 4-(1-propynyl)phenyl ether] | – | antagonists |
| CC(C)c1ccc(OCCCc2c[nH]cn2)cc1 [Example 173, 3-(1H-Imidazol-4-yl)propyl-4-isopropylphenyl ether] | – | antagonists |
| COCCCc1c[nH]cn1 [Example 174, 3-(1H-Imidazol-4-yl)propyl methyl ether] | – | antagonists |
| CCOCCCc1c[nH]cn1 [Example 175, Ethyl 3-(1H-imidazol-4-yl)propyl ether] | – | antagonists |
| CCCOCCCc1c[nH]cn1 [Example 176, 3-(1H-Imidazol-4-yl)propyl propyl ether] | – | antagonists |
| c1nc(CCCOC2CC2)c[nH]1 [Example 177, Cyclopropyl 3-(1H-imidazol-4-yl)propyl ether] | – | antagonists |
| c1nc(CCCOCC2CC2)c[nH]1 [Example 178, Cyclopropylmethyl 3-(1H-imidazol-4-yl)propyl ether] | – | antagonists |
| O=C(Nc1cc(C(F)(F)F)cc(C(F)(F)F)c1)OCCCc1c[nH]cn1 [Example 180, N-[3,5-Di(trifluoromethyl)phenyl]-3-(1H-imidazol-4-yl)propyl carbamate] | – | antagonists |
| CC(C)(C)C(Cc1ccccc1)NC(=O)OCCCc1c[nH]cn1 (stereo not shown) [Example 181, N-(1-tert-Butyl-2-phenyl)ethyl-3-(1H-imidazol-4-yl)propyl carbamate] | – | antagonists |
| CCC(CC)NC(=O)OCCCc1c[nH]cn1 [Example 182, N-(1-Ethylpropyl)-3-(1H-imidazol-4-yl)propyl carbamate] | – | antagonists |
